For experiment [1], the target named is GST fusion form of full-length human cIAP1 (human) (UniProt Q13490). Nature of the experiment: GST pulldown (50 nM GST-cIAP1, 100 nM Omi, Glutathione Sepharose beads, Western blot). In general terms: A western blot detects proteins with antibodies after separation by electrophoresis.
Experiment [2] concerns the target cIAP1 (form used in the pull-down with MAVPS Omi, not described) (UniProt Q13490). Nature of the experiment: pull-down assay of Omi expressed in transfected HeLa cells.
Experiment [3] has as its target GST fusion form of full-length human cIAP1 (human) (UniProt Q13490). As to the kind of experiment: GST pulldown (50 nM GST-cIAP1, 100 nM Omi mutant), compared with Omi WT.

Amino acid sequences for entries named in this document (tags omitted).
UniProt Q13490: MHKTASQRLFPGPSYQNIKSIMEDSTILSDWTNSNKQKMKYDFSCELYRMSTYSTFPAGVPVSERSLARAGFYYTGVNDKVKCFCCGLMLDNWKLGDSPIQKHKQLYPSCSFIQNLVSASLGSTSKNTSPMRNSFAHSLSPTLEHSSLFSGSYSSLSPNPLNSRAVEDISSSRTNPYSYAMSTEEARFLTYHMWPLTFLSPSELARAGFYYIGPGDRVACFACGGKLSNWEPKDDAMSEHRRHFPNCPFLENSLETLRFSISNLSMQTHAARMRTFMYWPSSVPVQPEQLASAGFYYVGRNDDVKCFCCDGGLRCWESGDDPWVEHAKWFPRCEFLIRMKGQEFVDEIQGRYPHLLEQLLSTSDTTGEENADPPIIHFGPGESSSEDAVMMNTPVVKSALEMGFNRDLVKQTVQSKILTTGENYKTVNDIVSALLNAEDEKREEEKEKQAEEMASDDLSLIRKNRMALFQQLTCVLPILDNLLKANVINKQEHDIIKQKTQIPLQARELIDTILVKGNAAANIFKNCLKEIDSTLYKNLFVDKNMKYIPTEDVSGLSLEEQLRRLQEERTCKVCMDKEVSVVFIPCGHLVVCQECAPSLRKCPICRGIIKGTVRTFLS

Results are given in words; binding and its absence hold for the method and conditions named. Binding seen in cells or lysates may run through a third protein. Some results given as binding are weak or reduced against the parent protein; the word gives no strength. Where a sequence is shown, tags or fusion partners need not be part of it.

B1: Omi WT (wild-type mature Omi/HtrA2, C-terminal hexa-His tagged, recombinant from E. coli) (enzyme)
chain: AVPSPPPASPRSQYNFIADVVEKTAPAVVYIEILDRHPFLGREVPISNGSGFVVAADGLIVTNAHVVADRRRVRVRLLSGDTYEAVVTAVDPVADIATLRIQTKEPLPTLPLGRSADVRQGEFVVAMGSPFALQNTITSGIVSSAQRPARDLGLPQTNVEYIQTDAAIDFGNSGGPLVNLDGEVIGVNTMKVTAGISFAIPSDRLREFLHRGEKKNSSSGISGSQRRYIGVMMLTLSPSILAELQLREPSFPDVQHGVLIHKVILGSPAHRAGLRPGDVILAIGEQMVQNAEDVYEAVRTQSQLAVQIRRGRETLTLYVTPEVTEHHHHHH
In the case of B1, in experiment [1], the binding result was “binds”.

B2: MAVPS Omi-Myc (cytosolic form of Omi, C-terminal c-Myc tagged, expressed in HeLa cells) (enzyme)
chain: AVPSPPPASPRSQYNFIADVVEKTAPAVVYIEILDRHPFLGREVPISNGSGFVVAADGLIVTNAHVVADRRRVRVRLLSGDTYEAVVTAVDPVADIATLRIQTKEPLPTLPLGRSADVRQGEFVVAMGSPFALQNTITSGIVSSAQRPARDLGLPQTNVEYIQTDAAIDFGNSGGPLVNLDGEVIGVNTMKVTAGISFAIPSDRLREFLHRGEKKNSSSGISGSQRRYIGVMMLTLSPSILAELQLREPSFPDVQHGVLIHKVILGSPAHRAGLRPGDVILAIGEQMVQNAEDVYEAVRTQSQLAVQIRRGRETLTLYVTPEVTEEQKLISEEDL
As to B2, the binding entry in experiment [2] is given as “binds”.

B3: OmiΔPDZ (Omi with the PDZ domain deleted, C-terminal hexa-His tagged) (enzyme)
chain: AVPSPPPASPRSQYNFIADVVEKTAPAVVYIEILDRHPFLGREVPISNGSGFVVAADGLIVTNAHVVADRRRVRVRLLSGDTYEAVVTAVDPVADIATLRIQTKEPLPTLPLGRSADVRQGEFVVAMGSPFALQNTITSGIVSSAQRPARDLGLPQTNVEYIQTDAAIDFGNSGGPLVNLDGEVIGVNTMKVTAGISFAIPSDRLREFLHRGEKKNSSSGISGSQHHHHHH
With B3, the binding result in experiment [3] is listed as “binds”.

These data come from patent US20040171105A1.
